Source: PMC6320799
Results are given in words; binding and its absence hold for the method and conditions named. Binding seen in cells or lysates may run through a third protein. Some binding calls cover weakened binding; strength is not graded here. Where a sequence is shown, tags or fusion partners need not be part of it.

Biological target: bZIP63 transcription factor (split-YFP fusions, positive control) (UniProt B9DGI8)
Assay: split reporter; BiFC with NYFP and CYFP fusions (pSPYNE-35S, pSPYCE-35S) co-infiltrated by Agrobacterium into N. benthamiana leaves with TBSV p19. Confocal microscopy of epidermal cells at 3 to 4 dpi.

binding: binds
B1: bZIP63 transcription factor (split-YFP fusions, positive control) (protein, UniProt B9DGI8 1-314)
chain: MEKVFSDEEISGNHHWSVNGMTSLNRSASEWAFNRFIQESSAAADDGESTTACGVSVSSPPNVPVDSEEYRAFLKSKLNLACAAVAMKRGTFIKPQDTSGRSDNGGANESEQASLASSKATPMMSSAITSGSELSGDEEEADGETNMNPTNVKRVKRMLSNRESARRSRRRKQAHLSELETQVSQLRVENSKLMKGLTDVTQTFNDASVENRVLKANIETLRAKVKMAEETVKRLTGFNPMFHNMPQIVSTVSLPSETSNSPDTTSSQVTTPEIISSGNKGKALIGCKMNRTASMRRVESLEHLQKRIRSVGDQ
